From PubChem BioAssay AID1963822 (ICCB-Longwood Screening Facility, Harvard Medical School, 2024)
The list shows a part of the results.

Test: growth inhibitors of anaerobic choline-fed gram-negatives, minimal medium, absorbance (AID 1963822)
Conditions: Gram-negative bacterium anaerobic choline minimal medium, measured here: choline growth z-score, timepoint 1, stronger effect = lower value

Row | SMILES | z-score
1 | CN(CCCl)CCCl | 0.26
